Measurements reported in PubChem BioAssay AID504793 (Drosophila RNAi Screening Center, 2011)
The screen tested about 23,000 reagents; below is an unselected part of those with a known target gene and a result. Of all reagents, 62 (0.27%) are marked active. 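Calls come from follow-up tests whose scores are not deposited, so confirmed genes may have low counts here; counts are not normalised per plate.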 Raw values vary from plate to plate and are shown uncorrected. Names joined by + are all predicted targets of the reagent.

Purpose: 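Genes required for cells to halt at G2/M after double-strand DNA breaks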 (primary screen)
Cells: Drosophila S2R+ cells
Knock-down reagent: long dsRNA against Drosophila genes, about 0.25 µg dsRNA per well
Time to read-out: 4 days of dsRNA, then 4 hours of drug before read-out
Conditions: doxorubicin 0.5 µM for 4 hours to cause double-strand breaks, in cells also given a low, harmless dose of dsRNA against nbs to sensitise the assay
Measured: 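Mitotic index as the number of phospho-histone H3-positive cells in each well following doxorubicin, given as raw counts without normalisation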
Scale: mitotic cells: higher = more cells in mitosis, weaker G2 arrest
Active means: 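a call needs confirmation in secondary tests, with other dsRNAs and a check of mitotic timing without damage, not just a high primary count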
Meaning of the calls: active = confirmed in follow-up tests; inactive = not confirmed

| mitotic cells, replicate 1 | Call | gene | dsRNA |
| --- | --- | --- | --- |
| 13 | inactive | CR11700 (retired record) | DRSC17794 |
| 9 | inactive | CR11700 (retired record) | DRSC23384 |
| 17 | inactive | Vps16B | DRSC15304 |
| 5 | inactive | CG31802 | DRSC02459 |
| 9 | inactive | zda | DRSC06936 |
| 15 | inactive | zda | DRSC25289 |
| 10 | inactive | CG31041 | DRSC13951 |
| 7 | inactive | CG5561 | DRSC00688 |
| 8 | inactive | CG12655 | DRSC20678 |
| 13 | inactive | CG11585 | DRSC19410 |
| 7 | inactive | CG11585 | DRSC27386 |
| 4 | inactive | CG11293 (retired record) | DRSC04098 |
| – | inactive | Cka | DRSC03476 |
| 8 | inactive | Cka | DRSC22858 |
| 6 | inactive | CG9168 | DRSC08633 |
| 6 | inactive | CG15499 (retired record) | DRSC15041 |
| 10 | inactive | Ufm1 + mute | DRSC26798 |
| 4 | inactive | par-6 | DRSC20359 |
| 9 | inactive | par-6 | DRSC29863 |
| 5 | inactive | Lkr | DRSC09754 |
| 3 | inactive | Prp8 | DRSC07293 |
| 10 | inactive | lab | DRSC12627 |
| 2 | inactive | lab | DRSC25048 |
| 7 | inactive | Ak1 | DRSC10248 |
| 7 | inactive | Ak1 | DRSC29837 |
| 5 | inactive | CYLD | DRSC02870 |
| 7 | inactive | CG31294 | DRSC22217 |
| 6 | inactive | CG31294 | DRSC26865 |
| 5 | inactive | CG3635 | DRSC03729 |
| 5 | inactive | CG1324 | DRSC20496 |
| 7 | inactive | CG1324 | DRSC25582 |
| 5 | inactive | cbt | DRSC00655 |
| 5 | inactive | cbt | DRSC26117 |
| 5 | inactive | CG33191 + Pif1B | DRSC12706 |
| 2 | inactive | ND-MWFE | DRSC06364 |
| 4 | inactive | row | DRSC07076 |
| 7 | inactive | row | DRSC07077 |
| 5 | inactive | siz | DRSC11622 |
| 4 | inactive | siz | DRSC11690 |
| 8 | inactive | siz | DRSC27379 |
| 13 | inactive | CG17377 | DRSC00950 |
| 8 | inactive | CG17377 | DRSC02615 |
| 14 | inactive | CG17377 | DRSC21811 |
| 4 | inactive | CG17377 | DRSC28817 |
| 11 | inactive | Alp4 | DRSC14116 |
| 9 | inactive | Phb2 | DRSC06512 |
| 3 | inactive | Nup160 | DRSC02774 |
| 8 | inactive | PH4alphaEFB | DRSC14473 |
| 18 | inactive | PH4alphaEFB | DRSC14950 |

23 entries already listed, arranged by “mitotic cells, replicate 1”, ascending.
| mitotic cells, replicate 1 | Call | gene | dsRNA |
| --- | --- | --- | --- |
| 2 | inactive | lab | DRSC25048 |
| 2 | inactive | ND-MWFE | DRSC06364 |
| 3 | inactive | Prp8 | DRSC07293 |
| 4 | inactive | par-6 | DRSC20359 |
| 4 | inactive | row | DRSC07076 |
| 4 | inactive | siz | DRSC11690 |
| 5 | inactive | Lkr | DRSC09754 |
| 5 | inactive | CYLD | DRSC02870 |
| 5 | inactive | CG3635 | DRSC03729 |
| 5 | inactive | CG1324 | DRSC20496 |
| 5 | inactive | cbt | DRSC00655 |
| 5 | inactive | cbt | DRSC26117 |
| 5 | inactive | CG33191 + Pif1B | DRSC12706 |
| 5 | inactive | siz | DRSC11622 |
| 6 | inactive | CG31294 | DRSC26865 |
| 7 | inactive | Ak1 | DRSC10248 |
| 7 | inactive | Ak1 | DRSC29837 |
| 7 | inactive | CG31294 | DRSC22217 |
| 7 | inactive | CG1324 | DRSC25582 |
| 7 | inactive | row | DRSC07077 |
| 9 | inactive | par-6 | DRSC29863 |
| 10 | inactive | Ufm1 + mute | DRSC26798 |
| 10 | inactive | lab | DRSC12627 |

The list goes on.
| mitotic cells, replicate 1 | Call | gene | dsRNA |
| --- | --- | --- | --- |
| 1 | inactive | nis | DRSC00290 |
| 9 | inactive | CG14511 | DRSC14863 |
| 6 | inactive | CG14511 | DRSC26574 |
| 11 | inactive | emc | DRSC23238 |
| 3 | inactive | emc | DRSC28439 |
| 8 | inactive | Rab7 | DRSC16810 |
| 6 | inactive | CG14273 | DRSC02377 |
| 2 | inactive | CG14273 | DRSC27247 |
| 13 | inactive | CG15597 | DRSC12283 |
| 7 | inactive | CG15597 | DRSC24202 |
| 11 | inactive | CG5162 | DRSC19935 |
| 4 | inactive | CG8441 | DRSC07180 |
| 3 | inactive | Acbp4 | DRSC11023 |
| 9 | inactive | Acbp4 | DRSC28938 |
| 11 | inactive | Ir94d | DRSC21568 |
| 9 | inactive | Dmtn | DRSC12513 |
| 5 | inactive | Dmtn | DRSC28385 |
| 7 | inactive | tomboy40 | DRSC04918 |
| 13 | inactive | tomboy40 | DRSC28442 |
| 5 | inactive | CG13319 | DRSC06356 |
| 2 | inactive | CG6592 | DRSC10669 |
| 7 | inactive | Osi15 | DRSC12178 |
| 10 | inactive | Smg6 | DRSC16029 |
| 1 | inactive | Smg6 | DRSC27703 |
| 7 | inactive | CG13186 | DRSC06311 |
| 7 | inactive | CG31388 | DRSC15254 |
| 10 | inactive | fs(1)N | DRSC18578 |
| 4 | inactive | Pex14 | DRSC11754 |
| 4 | inactive | Pex14 | DRSC28339 |
| 7 | inactive | gish | DRSC16154 |
| 9 | inactive | CG1572 | DRSC19686 |
| 9 | inactive | CG34446 | DRSC24507 |
| 6 | inactive | CG15461 | DRSC20532 |
| 8 | inactive | CG7755 | DRSC07040 |
| 6 | inactive | Orct | DRSC16777 |
| 2 | inactive | Orct | DRSC25574 |
| 4 | inactive | CG12075 | DRSC17801 |
| 14 | inactive | CG12075 | DRSC25257 |
| 5 | inactive | ken | DRSC23196 |
| 1 | inactive | brn | DRSC18746 |
| 10 | inactive | Remo | DRSC19710 |
| 4 | inactive | santa-maria | DRSC00994 |
| 6 | inactive | santa-maria | DRSC02180 |
| 47 | active | Mcm7 | DRSC11219 |
| 64 | active | Mcm7 | DRSC24311 |
| 2 | inactive | Alg10 | DRSC10892 |
| 3 | inactive | Vha100-5 | DRSC02175 |
| 5 | inactive | Vha100-5 | DRSC26439 |
| 1 | inactive | SuUR | DRSC11292 |
| 5 | inactive | S1P | DRSC11810 |
| 5 | inactive | Polr1B | DRSC00780 |
| 4 | inactive | zuc | DRSC02160 |
| 3 | inactive | RpL40 | DRSC00782 |
| 9 | inactive | mira | DRSC16998 |
| 4 | inactive | mira | DRSC26837 |
| 7 | inactive | htt | DRSC16970 |
| 8 | inactive | defl | DRSC10300 |
| 5 | inactive | CG13135 | DRSC02232 |
| 10 | inactive | CG13135 | DRSC27657 |
| 6 | inactive | SP | DRSC09664 |
| 3 | inactive | PGRP-SC1a + PGRP-SC1b | DRSC25294 |
| 11 | inactive | CG4467 | DRSC15585 |
| 9 | inactive | vkg | DRSC03632 |
| 4 | inactive | CG31038 | DRSC15051 |
| 11 | inactive | CG31038 | DRSC16326 |
| 11 | inactive | CG31038 | DRSC16327 |
| 9 | inactive | CG31038 | DRSC25740 |
| 6 | inactive | Sfxn2 | DRSC10718 |
| 5 | inactive | CG3655 | DRSC18181 |
| 6 | inactive | CG3655 | DRSC18477 |
| 7 | inactive | CG3655 | DRSC22688 |
| 8 | inactive | Srp72 | DRSC15800 |
| 12 | inactive | Srp72 | DRSC28338 |
| – | inactive | RpS4 | DRSC11272 |
| 10 | inactive | Sesn | DRSC04101 |
| 5 | inactive | Sesn | DRSC04102 |
| 3 | inactive | Sesn | DRSC04103 |
| 4 | inactive | Ocrl | DRSC18576 |
| 4 | inactive | nerfin-1 | DRSC08729 |
| 8 | inactive | Elp2 | DRSC06095 |
| 5 | inactive | CG15247 | DRSC17976 |
| 10 | inactive | CG15247 | DRSC24221 |
| 9 | inactive | BigH1 | DRSC15491 |
| 4 | inactive | BigH1 | DRSC27817 |
| 88 | inactive | Prosbeta7 | DRSC12186 |
| 5 | inactive | Galk | DRSC10500 |
| 5 | inactive | Galk | DRSC26987 |
| 17 | inactive | His-Psi:CR31754 | DRSC22051 |
| 6 | inactive | Nop10 | DRSC28427 |
| 11 | inactive | CG6293 | DRSC16011 |
| 9 | inactive | CG6293 | DRSC28774 |
